Measurements: patent US20010014457A1, “NUCLEIC ACIDS ENCODING RECEPTORS FOR BOMBESIN-LIKE PEPTIDES” (priority 1994, published 2001)
At least one compound was matched to its structure with a doubt left.

Assays:
BRS-3 receptor = conditions: comparison statement, BRS-3 receptor versus BB4 receptor; cited from earlier work
frog BB4 receptor = biological target: T1, frog BB4 receptor (Bombina orientalis, UniProt P47751); assay: Bombesin-induced changes in intracellular calcium in Xenopus oocytes injected with receptor RNA (aequorin luminescence); type: cell-based; conditions: 1 nM bombesin in OR-2 buffer; Xenopus oocytes injected with frog BB4 receptor RNA and aequorin; FIG. 2
T1 construct: expressed in transfected cells; host or cells: Xenopus oocytes injected with in vitro transcribed receptor RNA
T1 sequence (P47751 1-392): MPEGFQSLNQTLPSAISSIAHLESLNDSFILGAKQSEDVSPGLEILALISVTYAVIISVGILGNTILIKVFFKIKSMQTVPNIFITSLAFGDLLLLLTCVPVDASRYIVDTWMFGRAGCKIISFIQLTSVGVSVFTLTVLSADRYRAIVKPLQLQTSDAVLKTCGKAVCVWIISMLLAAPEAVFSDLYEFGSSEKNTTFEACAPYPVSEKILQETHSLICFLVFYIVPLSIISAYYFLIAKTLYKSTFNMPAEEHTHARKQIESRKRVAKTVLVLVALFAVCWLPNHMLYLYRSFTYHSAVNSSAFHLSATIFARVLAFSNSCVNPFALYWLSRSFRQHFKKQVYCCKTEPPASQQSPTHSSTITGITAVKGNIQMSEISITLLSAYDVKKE

CSCC[C@H](NC(=O)[C@H](CC(C)C)NC(=O)[C@H](Cc1cnc[nH]1)NC(=O)CNC(=O)[C@@H](NC(=O)[C@H](C)NC(=O)[C@H](Cc1c[nH]c2ccccc12)NC(=O)[C@H](CCC(N)=O)NC(=O)[C@H](CC(N)=O)NC(=O)CNC(=O)[C@H](CC(C)C)NC(=O)[C@H](CCCN=C(N)N)NC(=O)[C@H](CCC(N)=O)NC(=O)[C@@H]1CCC(=O)N1)C(C)C)C(N)=O [bombesin]
response of receptor to bombesin (BRS-3 receptor): does not respond
response of receptor to bombesin (ligand-induced increase in intracellular calcium, light output) (frog BB4 receptor): potently responded
